Experimental data: the supplement of paper PMC10849652
The list shows a part of the results.

Protein sequences, listed by entry. Tags and fused reporters are not part of them. Lines headed by an entry give the natural chain unless they say otherwise; changes in a name come on top.
UniProt P02656: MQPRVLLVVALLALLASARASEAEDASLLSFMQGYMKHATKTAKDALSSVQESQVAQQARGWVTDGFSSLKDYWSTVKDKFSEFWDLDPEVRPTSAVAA
UniProt Q9H0R1: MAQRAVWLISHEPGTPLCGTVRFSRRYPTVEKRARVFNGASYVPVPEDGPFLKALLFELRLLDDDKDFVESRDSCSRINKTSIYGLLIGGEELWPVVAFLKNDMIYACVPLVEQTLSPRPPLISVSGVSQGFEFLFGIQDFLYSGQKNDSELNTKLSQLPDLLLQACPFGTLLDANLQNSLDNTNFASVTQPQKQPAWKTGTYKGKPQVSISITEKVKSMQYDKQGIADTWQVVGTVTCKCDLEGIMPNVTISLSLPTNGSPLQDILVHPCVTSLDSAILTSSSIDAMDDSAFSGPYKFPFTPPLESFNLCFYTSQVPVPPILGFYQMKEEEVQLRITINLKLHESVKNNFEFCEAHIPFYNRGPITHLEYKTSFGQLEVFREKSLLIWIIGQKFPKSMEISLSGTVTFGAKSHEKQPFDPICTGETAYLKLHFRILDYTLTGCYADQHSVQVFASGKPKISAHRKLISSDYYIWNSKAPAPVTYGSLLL
UniProt O60306: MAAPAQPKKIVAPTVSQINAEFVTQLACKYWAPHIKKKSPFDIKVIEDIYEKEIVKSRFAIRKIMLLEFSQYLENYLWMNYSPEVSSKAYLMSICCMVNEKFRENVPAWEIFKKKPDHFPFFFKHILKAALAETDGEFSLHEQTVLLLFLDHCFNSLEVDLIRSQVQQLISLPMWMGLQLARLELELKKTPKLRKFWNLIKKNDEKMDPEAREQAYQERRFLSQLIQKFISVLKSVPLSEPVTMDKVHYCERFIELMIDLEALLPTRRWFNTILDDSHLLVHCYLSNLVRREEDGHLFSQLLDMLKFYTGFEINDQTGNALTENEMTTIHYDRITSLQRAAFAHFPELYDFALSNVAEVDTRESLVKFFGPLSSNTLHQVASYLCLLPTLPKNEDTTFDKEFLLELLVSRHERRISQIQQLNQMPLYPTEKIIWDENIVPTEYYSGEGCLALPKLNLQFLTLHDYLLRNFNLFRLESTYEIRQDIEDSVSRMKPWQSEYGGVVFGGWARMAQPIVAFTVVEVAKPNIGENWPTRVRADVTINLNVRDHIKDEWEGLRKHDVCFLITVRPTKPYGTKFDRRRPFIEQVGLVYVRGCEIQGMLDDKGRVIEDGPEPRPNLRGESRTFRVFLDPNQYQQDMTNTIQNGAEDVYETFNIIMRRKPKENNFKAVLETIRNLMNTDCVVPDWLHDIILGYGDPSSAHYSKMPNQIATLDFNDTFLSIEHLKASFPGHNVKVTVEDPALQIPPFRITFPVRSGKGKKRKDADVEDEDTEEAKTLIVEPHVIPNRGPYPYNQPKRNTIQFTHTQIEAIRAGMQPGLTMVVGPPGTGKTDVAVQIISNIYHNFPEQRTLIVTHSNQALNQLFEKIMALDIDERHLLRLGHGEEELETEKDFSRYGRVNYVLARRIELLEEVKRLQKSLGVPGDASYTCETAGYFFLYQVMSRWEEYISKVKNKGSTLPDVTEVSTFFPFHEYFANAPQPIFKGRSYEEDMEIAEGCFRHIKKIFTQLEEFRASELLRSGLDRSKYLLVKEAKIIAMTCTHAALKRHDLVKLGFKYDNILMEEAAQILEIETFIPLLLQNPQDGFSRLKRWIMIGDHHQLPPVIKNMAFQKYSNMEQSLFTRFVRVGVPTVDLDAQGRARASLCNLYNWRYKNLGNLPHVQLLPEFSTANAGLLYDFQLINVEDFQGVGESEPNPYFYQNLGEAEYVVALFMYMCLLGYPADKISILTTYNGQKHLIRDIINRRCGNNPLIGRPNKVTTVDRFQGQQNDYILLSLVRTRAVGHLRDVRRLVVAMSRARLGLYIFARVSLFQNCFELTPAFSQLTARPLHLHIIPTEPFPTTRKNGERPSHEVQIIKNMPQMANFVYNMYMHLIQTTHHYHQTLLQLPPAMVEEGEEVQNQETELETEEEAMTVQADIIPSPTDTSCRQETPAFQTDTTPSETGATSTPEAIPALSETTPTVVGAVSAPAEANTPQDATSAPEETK
UniProt P08758: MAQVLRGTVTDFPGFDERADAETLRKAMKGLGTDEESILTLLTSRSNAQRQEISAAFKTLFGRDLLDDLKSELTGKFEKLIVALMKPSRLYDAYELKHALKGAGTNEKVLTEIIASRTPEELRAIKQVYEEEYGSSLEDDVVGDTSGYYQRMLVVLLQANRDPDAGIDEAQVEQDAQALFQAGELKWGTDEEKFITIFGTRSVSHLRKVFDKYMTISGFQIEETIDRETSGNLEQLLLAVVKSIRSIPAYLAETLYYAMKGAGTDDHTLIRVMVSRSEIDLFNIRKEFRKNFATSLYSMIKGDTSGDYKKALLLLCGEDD
UniProt Q96P48: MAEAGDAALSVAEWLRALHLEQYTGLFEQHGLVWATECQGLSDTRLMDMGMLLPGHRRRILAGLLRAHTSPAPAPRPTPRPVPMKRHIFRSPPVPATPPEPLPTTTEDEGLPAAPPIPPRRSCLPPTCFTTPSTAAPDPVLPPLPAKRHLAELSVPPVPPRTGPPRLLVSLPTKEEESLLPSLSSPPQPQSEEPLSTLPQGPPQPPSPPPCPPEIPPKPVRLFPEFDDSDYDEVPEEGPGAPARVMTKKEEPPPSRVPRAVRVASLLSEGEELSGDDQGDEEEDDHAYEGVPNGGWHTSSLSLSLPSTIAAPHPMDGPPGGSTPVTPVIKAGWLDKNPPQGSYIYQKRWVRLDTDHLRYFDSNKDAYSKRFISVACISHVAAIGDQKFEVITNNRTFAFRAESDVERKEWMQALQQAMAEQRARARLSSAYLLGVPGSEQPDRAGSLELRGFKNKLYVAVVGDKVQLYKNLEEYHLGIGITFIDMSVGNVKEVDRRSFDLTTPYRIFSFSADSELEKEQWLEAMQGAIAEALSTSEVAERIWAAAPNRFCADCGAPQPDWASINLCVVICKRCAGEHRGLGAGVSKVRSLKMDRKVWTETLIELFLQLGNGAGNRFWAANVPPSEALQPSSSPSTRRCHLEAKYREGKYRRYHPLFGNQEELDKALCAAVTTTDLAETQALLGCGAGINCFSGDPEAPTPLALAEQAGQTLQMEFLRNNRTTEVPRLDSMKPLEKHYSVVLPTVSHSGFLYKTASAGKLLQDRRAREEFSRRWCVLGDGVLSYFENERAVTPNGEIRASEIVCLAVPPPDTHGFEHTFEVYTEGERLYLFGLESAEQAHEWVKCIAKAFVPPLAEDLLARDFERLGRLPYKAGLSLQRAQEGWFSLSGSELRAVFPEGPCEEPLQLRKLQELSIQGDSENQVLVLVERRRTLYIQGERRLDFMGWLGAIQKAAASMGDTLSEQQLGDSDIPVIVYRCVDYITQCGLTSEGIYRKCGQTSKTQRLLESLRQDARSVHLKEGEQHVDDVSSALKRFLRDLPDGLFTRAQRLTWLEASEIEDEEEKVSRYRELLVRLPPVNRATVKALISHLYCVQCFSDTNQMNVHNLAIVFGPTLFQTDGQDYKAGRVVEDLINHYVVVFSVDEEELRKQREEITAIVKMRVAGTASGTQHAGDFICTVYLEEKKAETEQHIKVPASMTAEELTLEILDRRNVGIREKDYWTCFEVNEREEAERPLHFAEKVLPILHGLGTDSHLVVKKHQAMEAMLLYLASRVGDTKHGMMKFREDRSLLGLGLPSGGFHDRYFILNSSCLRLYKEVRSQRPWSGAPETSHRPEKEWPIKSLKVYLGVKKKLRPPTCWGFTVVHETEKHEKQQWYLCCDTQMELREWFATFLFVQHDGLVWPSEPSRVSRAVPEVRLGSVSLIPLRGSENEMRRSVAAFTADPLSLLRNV
UniProt O94973, whole entry, looked up: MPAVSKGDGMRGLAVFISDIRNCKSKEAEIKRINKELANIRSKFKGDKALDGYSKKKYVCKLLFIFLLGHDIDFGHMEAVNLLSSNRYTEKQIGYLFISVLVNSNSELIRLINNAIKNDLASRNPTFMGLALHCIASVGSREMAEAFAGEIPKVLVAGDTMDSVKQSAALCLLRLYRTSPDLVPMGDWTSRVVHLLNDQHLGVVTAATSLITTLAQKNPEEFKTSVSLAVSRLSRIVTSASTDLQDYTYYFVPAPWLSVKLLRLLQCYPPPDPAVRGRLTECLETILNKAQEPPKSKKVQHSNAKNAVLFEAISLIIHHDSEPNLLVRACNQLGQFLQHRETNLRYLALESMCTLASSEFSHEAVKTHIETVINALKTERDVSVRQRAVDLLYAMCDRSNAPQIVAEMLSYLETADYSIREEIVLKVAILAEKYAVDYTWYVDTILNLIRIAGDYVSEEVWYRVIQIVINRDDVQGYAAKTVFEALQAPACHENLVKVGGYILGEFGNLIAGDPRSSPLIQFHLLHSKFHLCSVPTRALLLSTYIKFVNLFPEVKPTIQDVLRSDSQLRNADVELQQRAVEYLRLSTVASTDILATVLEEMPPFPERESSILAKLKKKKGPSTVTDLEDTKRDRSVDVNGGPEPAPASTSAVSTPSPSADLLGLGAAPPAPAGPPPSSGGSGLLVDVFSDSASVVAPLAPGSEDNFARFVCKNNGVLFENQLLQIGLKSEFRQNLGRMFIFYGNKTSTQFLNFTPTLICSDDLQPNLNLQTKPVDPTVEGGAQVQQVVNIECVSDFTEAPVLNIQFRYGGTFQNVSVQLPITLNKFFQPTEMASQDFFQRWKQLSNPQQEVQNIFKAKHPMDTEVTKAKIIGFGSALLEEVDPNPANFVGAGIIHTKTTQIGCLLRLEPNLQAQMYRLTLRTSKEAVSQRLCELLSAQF
UniProt Q6ZSZ5: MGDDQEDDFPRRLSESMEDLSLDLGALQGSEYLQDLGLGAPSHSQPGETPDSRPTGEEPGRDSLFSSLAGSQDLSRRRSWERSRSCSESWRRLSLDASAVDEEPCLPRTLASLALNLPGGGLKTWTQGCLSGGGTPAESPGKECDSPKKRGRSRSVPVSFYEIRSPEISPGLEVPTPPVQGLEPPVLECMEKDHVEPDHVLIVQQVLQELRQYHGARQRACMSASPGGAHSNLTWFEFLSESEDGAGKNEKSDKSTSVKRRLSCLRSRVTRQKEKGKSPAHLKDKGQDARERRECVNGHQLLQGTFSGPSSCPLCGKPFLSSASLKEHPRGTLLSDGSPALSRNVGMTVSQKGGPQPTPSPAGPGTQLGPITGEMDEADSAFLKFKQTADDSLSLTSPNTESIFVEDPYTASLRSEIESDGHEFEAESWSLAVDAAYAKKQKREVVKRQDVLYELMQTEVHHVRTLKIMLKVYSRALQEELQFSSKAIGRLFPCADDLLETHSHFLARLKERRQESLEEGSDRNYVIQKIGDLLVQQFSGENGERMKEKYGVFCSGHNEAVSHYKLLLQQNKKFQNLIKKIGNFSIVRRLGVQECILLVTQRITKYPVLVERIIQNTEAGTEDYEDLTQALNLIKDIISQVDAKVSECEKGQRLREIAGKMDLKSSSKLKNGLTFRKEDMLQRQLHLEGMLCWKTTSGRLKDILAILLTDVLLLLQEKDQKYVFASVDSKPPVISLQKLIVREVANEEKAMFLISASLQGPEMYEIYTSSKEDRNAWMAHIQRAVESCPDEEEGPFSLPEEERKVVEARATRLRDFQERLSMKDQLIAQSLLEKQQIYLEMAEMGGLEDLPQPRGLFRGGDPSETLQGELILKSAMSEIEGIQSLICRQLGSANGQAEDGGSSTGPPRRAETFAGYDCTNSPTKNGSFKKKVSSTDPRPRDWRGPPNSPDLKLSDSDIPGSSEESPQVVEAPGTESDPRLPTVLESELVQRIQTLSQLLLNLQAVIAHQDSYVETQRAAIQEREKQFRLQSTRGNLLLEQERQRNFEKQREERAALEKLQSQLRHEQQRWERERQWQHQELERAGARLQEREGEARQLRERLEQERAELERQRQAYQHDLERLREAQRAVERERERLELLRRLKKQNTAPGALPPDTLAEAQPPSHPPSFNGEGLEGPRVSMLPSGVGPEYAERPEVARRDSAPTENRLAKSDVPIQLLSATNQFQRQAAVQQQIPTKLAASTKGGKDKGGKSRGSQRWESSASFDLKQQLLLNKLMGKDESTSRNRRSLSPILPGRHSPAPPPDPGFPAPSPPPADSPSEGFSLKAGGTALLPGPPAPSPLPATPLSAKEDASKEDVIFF
UniProt Q8N6T3: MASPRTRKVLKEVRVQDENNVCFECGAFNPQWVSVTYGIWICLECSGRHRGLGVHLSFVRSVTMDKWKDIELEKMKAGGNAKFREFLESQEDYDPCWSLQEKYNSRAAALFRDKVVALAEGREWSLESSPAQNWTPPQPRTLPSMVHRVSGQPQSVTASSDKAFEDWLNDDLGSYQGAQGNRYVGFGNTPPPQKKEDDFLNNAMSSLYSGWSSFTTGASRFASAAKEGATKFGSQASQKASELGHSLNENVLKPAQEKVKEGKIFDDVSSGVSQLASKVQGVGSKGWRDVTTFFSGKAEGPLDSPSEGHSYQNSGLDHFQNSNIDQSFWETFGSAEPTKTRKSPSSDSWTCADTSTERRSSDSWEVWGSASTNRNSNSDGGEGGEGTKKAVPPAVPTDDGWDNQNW

Assays:
Assay in all cases: log2 fold change, soluble protein after heating vs DMSO (PISA); higher = thermal stabilisation; K562 cells, 10 uM, 30 min; active = over 0.2 and 3.5 SD of the protein, either way, in both replicates (recomputed)
[1] = compound: CC1=C(C=C(C=C1)NC(=O)C2=CC(=CC=C2)C(C)(C)C#N)NC3=CC4=C(C=C3)N=CN(C4=O)C
Method in brief: (§1)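 For each measurement, 10 μM compound was applied for 30 min to K562 cells at 2×10^6 cells/mL. Aliquots were heated for 3 min across 48°C-58°C, pooled, and extracted in PBS with 0.5% NP-40 at 4°C; the supernatant after 21,000xg for 90 min was soluble protein. This was quantified by TMTpro 16plex LC-MS/MS with channel sums equalised, and thermal stability was reported relative to control samples from duplicates, on a log2 fold-change scale.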

[2] = compound: CC1=C(C=C(C=C1)NC(=O)C2=CC(=CC=C2)N(C)C)NC(=O)C3=CC=C(C=C3)O
Method in brief: as §1

[3] = compound: CC1=CC=C(C=C1)SC2=C3C=C(SC3=CN=C2)C(=O)N
Method in brief: as §1

Nexturastat A = compound: CCCCN(Cc1ccc(C(=O)NO)cc1)C(=O)Nc1ccccc1 [Nexturastat A]
Method in brief: as §1

[4] = compound: CCCS(=O)(=O)Nc1ccc(F)c(C(=O)c2c[nH]c3ncc(Cl)cc23)c1F
Method in brief: as §1

[5] = compound: CCCc1cc(C)[nH]c(=O)c1CNC(=O)c1cc(-c2ccnc(N3CCN(C)CC3)c2)cc2c1cnn2C(C)C
Method in brief: as §1

barasertib = compound: CCN(CCCOc1ccc2c(Nc3cc(CC(=O)Nc4cccc(F)c4)[nH]n3)ncnc2c1)CCOP(=O)(O)O [barasertib]
Method in brief: as §1

[6] = compound: CC[C@@H]1C(=O)N(C)c2cnc(Nc3ccc(C(=O)NC4CCN(C)CC4)cc3OC)nc2N1C1CCCC1
Method in brief: as §1

volasertib = compound: CC[C@@H]1C(=O)N(C)c2cnc(Nc3ccc(C(=O)N[C@H]4CC[C@H](N5CCN(CC6CC6)CC5)CC4)cc3OC)nc2N1C(C)C [volasertib]
Method in brief: as §1

[7] = compound: CC[C@H](C)N1C=C(C2=C(C=C(C=C21)C3=CN=C(C=C3)N4CCNCC4)C(=O)NCC5=C(C=C(NC5=O)C)C)C
Method in brief: as §1

epoxomicin = compound: CC[C@H](C)[C@@H](C(=O)N[C@@H]([C@@H](C)O)C(=O)N[C@@H](CC(C)C)C(=O)[C@]1(CO1)C)NC(=O)[C@H]([C@@H](C)CC)N(C)C(=O)C [epoxomicin]
Method in brief: as §1

rosiglitazone = compound: CN(CCOC1=CC=C(C=C1)C[C@H]2C(=O)NC(=O)S2)C3=CC=CC=N3 (racemic) [rosiglitazone]
Method in brief: as §1

[8] = compound: CN1C2=C(C3=C1C(=O)N(N=C3)CC4=CC(=CC=C4)N)SC(=C2)S(=O)C
Method in brief: as §1

[9] = compound: CC1=NC(=CC=C1)C2=C(N=C(N2)C(C)(C)C)C3=CC4=NC=CN=C4C=C3
Method in brief: as §1

vemurafenib = compound: CCCS(=O)(=O)Nc1ccc(F)c(C(=O)c2c[nH]c3ncc(-c4ccc(Cl)cc4)cc23)c1F [vemurafenib]
Method in brief: as §1

givinostat = compound: CCN(CC)Cc1ccc2cc(COC(=O)Nc3ccc(C(=O)NO)cc3)ccc2c1 [givinostat]
Method in brief: as §1

[10] = compound: CCn1cc(-c2ccnc3[nH]c(-c4cccc(CN(C)C)c4)cc23)c(-c2ccc(NC(=O)N(C)C)cc2)n1
Method in brief: as §1

[11] = compound: CN(C)CC(=O)Nc1ccc2[nH]c(=O)c3ccccc3c2c1
Method in brief: as §1

[12] = compound: CN1CCC(CNc2ccc3ncc(-c4cccc(OC(F)(F)F)c4)n3n2)CC1
Method in brief: as §1

[13] = compound: CCn1c(C(=O)N(C2CC2)C2CC2)cc2c3c(ncn3C)c(Nc3cc(C)n(C)n3)nc21
Method in brief: as §1

Measured: log2 fold change

APOC3 (UniProt P02656)
inactive: [1] 0.182 | [2] -0.114 | [3] 0.092 | Nexturastat A -0.348 | [4] -0.2 | [5] -0.076 | barasertib -0.051 | [6] 0.32 | volasertib 0.393 | [7] 0.258 | epoxomicin -0.553 | rosiglitazone -0.038 | [8] -0.007

ANAPC2 (UniProt Q9UJX6)
inactive: [1] 0.031 | [2] -0.015 | [3] -0.001 | [9] 0.069 | Nexturastat A -0.045 | vemurafenib 0.027 | [4] 0.047 | [5] -0.049 | givinostat 0.042 | barasertib 0.022 | [6] -0.071 | [7] 0.023 | epoxomicin -0.031 | [10] -0.018 | [11] 0.004 | [8] 0.03 | [12] -0.001
active: volasertib -0.338

ARFRP1 (UniProt Q13795)
inactive: [1] 0.138 | [2] 0.003 | [3] 0.082 | [9] 0.069 | Nexturastat A -0.048 | vemurafenib 0.033 | [4] 0 | [5] 0.046 | givinostat 0.012 | barasertib -0.015 | [6] -0.038 | volasertib -0.05 | [7] 0.048 | epoxomicin 0.037 | [10] -0.23 | [11] 0.012 | [8] -0.021 | [12] 0.071

APOB (UniProt P04114)
inactive: [1] -0.039 | [2] 0.134 | [3] 0.146 | [9] 0.032 | Nexturastat A -0.049 | vemurafenib -0.006 | [4] 0.095 | givinostat 0.074 | barasertib -0.012 | [6] -0.235 | volasertib -0.104 | [7] -0.227 | epoxomicin -0.056 | [10] 0.048 | [11] 0.014 | [8] 0.116 | [12] -0.354
active: [5] -0.853

ANKRD11 (UniProt Q6UB99)
inactive: [1] -0.209 | [2] 0.07 | vemurafenib -0.18 | [5] -0.758 | givinostat -0.009 | barasertib 0.044 | [7] -0.212 | [13] 0.002 | [11] 0.023 | rosiglitazone 0.052

AP5M1 (UniProt Q9H0R1)
inactive: [1] 0.075 | [2] -0.09 | [3] 0.055 | [9] 0.119 | Nexturastat A 0.059 | vemurafenib -0.375 | [4] -0.003 | [5] -0.067 | barasertib 0.061 | [6] -0.008 | volasertib -0.121 | [7] -0.02 | epoxomicin 0.047 | [10] 0.038 | [11] 0.078 | rosiglitazone -0.064 | [8] 0.156 | [12] -0.043

AQR (UniProt O60306)
inactive: [1] -0.131 | [2] -0.01 | [3] -0.001 | [9] -0.079 | Nexturastat A 0.067 | vemurafenib -0.009 | [4] -0.049 | [5] 0.061 | givinostat 0.158 | volasertib -0.039 | epoxomicin -0.104 | [13] -0.088 | [10] 0.009 | [11] -0.231 | [8] 0.187 | [12] 0.113

ANXA5 (UniProt P08758)
inactive: [1] 0.057 | [2] -0.065 | [3] -0.01 | [9] 0.068 | Nexturastat A -0.116 | vemurafenib 0.07 | [4] 0.071 | [5] 0.039 | givinostat 0.033 | barasertib 0.034 | [6] -0.084 | [7] 0.04 | epoxomicin 0.068 | [10] -0.041 | [11] 0.012 | [8] -0.04 | [12] -0.042
active: volasertib -0.214

ARAP1 (UniProt Q96P48)
inactive: [1] 0.01 | [2] -0.05 | [3] -0.018 | [9] -0.005 | Nexturastat A 0.351 | [4] 0.079 | [5] 0.202 | barasertib 0.05 | [6] 0.107 | volasertib -0.32 | [7] -0.042 | epoxomicin -0.208 | [10] 0.118 | rosiglitazone -0.163 | [8] 0.21 | [12] -0.106

ARF4 (UniProt P18085)
inactive: [1] 0.022 | [2] -0.014 | [3] 0 | [9] 0.012 | Nexturastat A -0.095 | vemurafenib 0.02 | [4] 0.022 | [5] 0.023 | givinostat 0.016 | barasertib 0.048 | [6] 0.064 | volasertib 0.094 | [7] 0.009 | epoxomicin 0.112 | [10] 0.014 | [11] 0.041 | [8] -0.076 | [12] 0.097

AP2A2 isoform 2 (UniProt O94973)
inactive: [1] 0.084 | [2] 0 | [3] 0.01 | [9] 0.049 | Nexturastat A 0.004 | vemurafenib -0.008 | [4] 0.002 | [5] 0.038 | givinostat 0.003 | barasertib 0.002 | [6] 0.026 | volasertib -0.021 | [7] 0 | epoxomicin 0.048 | [10] -0.012 | [11] 0 | [8] 0.008 | [12] 0.089

ARHGEF18 (UniProt Q6ZSZ5)
inactive: [1] 0.048 | [2] -0.126 | [3] 0.001 | Nexturastat A -0.102 | vemurafenib 0.042 | [4] -0.051 | [5] 0.088 | givinostat 0.123 | barasertib -0.004 | volasertib -0.059 | [7] -0.105 | epoxomicin -0.118 | [13] -0.06 | [10] 0.057 | [11] -0.069 | rosiglitazone 0.036 | [8] 0.08 | [12] -0.101

ARGLU1 (UniProt Q9NWB6)
inactive: [1] 0.046 | [2] 0.055 | [3] -0.136 | [9] -0.044 | Nexturastat A 0.147 | vemurafenib 0.061 | [4] -0.045 | [5] -0.009 | givinostat 0.001 | barasertib -0.075 | [6] 0.094 | volasertib -0.004 | [7] 0.033 | epoxomicin -0.106 | [10] 0.138 | [11] 0.003 | [8] 0.068 | [12] 0

APPL1 (UniProt Q9UKG1)
inactive: [1] 0.012 | [2] 0.008 | [3] 0.035 | [9] 0.015 | Nexturastat A -0.032 | vemurafenib 0.066 | [4] 0.017 | [5] -0.033 | givinostat 0.039 | barasertib 0.02 | [6] -0.149 | [7] 0.058 | epoxomicin -0.044 | [10] -0.021 | [11] 0.02 | [8] -0.113 | [12] -0.065
active: volasertib -0.317

Pulled one by one from the list above, 2 records:
AP2A2 isoform 2 (UniProt O94973)
inactive: [1] 0.084 | [2] 0 | [3] 0.01 | [9] 0.049 | Nexturastat A 0.004 | vemurafenib -0.008 | [4] 0.002 | [5] 0.038 | givinostat 0.003 | barasertib 0.002 | [6] 0.026 | volasertib -0.021 | [7] 0 | epoxomicin 0.048 | [10] -0.012 | [11] 0 | [8] 0.008 | [12] 0.089

APPL1 (UniProt Q9UKG1)
inactive: [1] 0.012 | [2] 0.008 | [3] 0.035 | [9] 0.015 | Nexturastat A -0.032 | vemurafenib 0.066 | [4] 0.017 | [5] -0.033 | givinostat 0.039 | barasertib 0.02 | [6] -0.149 | [7] 0.058 | epoxomicin -0.044 | [10] -0.021 | [11] 0.02 | [8] -0.113 | [12] -0.065
active: volasertib -0.317

Next entries follow.

ANKRD29 (UniProt Q8N6D5)
inactive: [1] 0.046 | [2] 0.022 | [3] 0.027 | [9] -0.035 | Nexturastat A 0.371 | vemurafenib -0.064 | [4] -0.031 | [5] -0.073 | givinostat 0.247 | barasertib -0.124 | [6] -0.021 | volasertib -0.27 | [7] -0.152 | epoxomicin 0 | [10] -0.233 | [11] 0.025 | [8] -0.039 | [12] -0.043

ARHGAP21 (UniProt Q5T5U3)
inactive: [1] -0.091 | [2] 0.204 | Nexturastat A 0.247 | [5] 0.142 | barasertib -0.456 | [7] -0.179 | epoxomicin -0.185 | [10] 0.284 | rosiglitazone -0.258 | [8] 0.401 | [12] 0.028

ANKRD26 (UniProt Q9UPS8)
inactive: [1] -0.012 | [2] 0.098 | [3] 0.013 | vemurafenib 0 | [4] 0.102 | [5] -0.057 | volasertib 0.017 | [7] -0.009 | [10] -0.207 | [11] 0.028 | [12] 0.022

ARFGAP1 (UniProt Q8N6T3)
active: volasertib -0.545
inactive: [1] -0.053 | [2] -0.168 | [3] 0.107 | [9] 0.034 | Nexturastat A 0.038 | vemurafenib 0.085 | [4] 0.124 | [5] 0.016 | givinostat 0.029 | barasertib 0.1 | [6] -0.182 | [7] 0.056 | epoxomicin 0.026 | [10] 0.008 | [11] 0.036 | [8] -0.016 | [12] 0.068

ARHGEF12 (UniProt Q9NZN5)
inactive: [1] 0.02 | [2] 0.091 | [3] -0.025 | [9] -0.107 | Nexturastat A 0.344 | vemurafenib -0.083 | [4] -0.038 | [5] 0.121 | givinostat 0.103 | barasertib 0.248 | volasertib -0.283 | epoxomicin -0.324 | [13] -0.062 | [11] 0.055 | rosiglitazone -0.076 | [8] 0.251

ANKS1A (UniProt Q92625)
inactive: [1] -0.018 | [2] 0.016 | [9] -0.098 | Nexturastat A 0.284 | barasertib -0.461 | [6] 0.039 | epoxomicin 0.001 | rosiglitazone 0.06
